{"source": "PubChem BioAssay AID1259308 (NCATS, 2017)", "aim": "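Genes whose loss raises luciferase production in HEK293 cells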 (primary screen)", "cells": "human HEK293 embryonic kidney cells stably expressing firefly luciferase (HEK-CMV-Luc2-Hygro)", "reagent": "single siRNA against human genes, 0.8 pmol siRNA per well", "time to read-out": "72 h", "read-out": "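Reporter luminescence and viable-cell signal on separate replicate plates, given as percent of non-targeting control and median/MAD z-scores, plus per-cell luciferase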", "direction": "total luciferase, z-score and total luciferase, % of control: higher = more reporter protein produced", "hit rule": "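An siRNA counts as active if its total luciferase robust z-score exceeds 3; genes with two or more such siRNAs out of three were retested with fresh siRNAs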", "calls": "active = raised luciferase; inactive = no rise", "note": "Here is a random part of about 59,000 reagents tested. About 1,510 of all reagents (2.6%) were called active. 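Calls use total luciferase alone and ignore viability, so some active siRNAs may act by altering cell number.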 A number with no mark means an inactive call. Reagents against one gene are numbered here. Further read-outs or replicates are left out here. No sequences are given here."}
{"target gene": "ZMYND11 (zinc finger MYND-type containing 11)", "reagent": 1, "total luciferase, z-score": 0.514, "total luciferase, % of control": 92.1}
{"target gene": "ZMYND11 (zinc finger MYND-type containing 11)", "reagent": 2, "total luciferase, z-score": -1.38, "total luciferase, % of control": 54.4}
{"target gene": "ZMYND11 (zinc finger MYND-type containing 11)", "reagent": 3, "total luciferase, z-score": 0.436, "total luciferase, % of control": 90.6}
{"target gene": "MFN1 (mitofusin 1)", "reagent": 1, "total luciferase, z-score": -0.291, "total luciferase, % of control": 76.1}
{"target gene": "MFN1 (mitofusin 1)", "reagent": 2, "total luciferase, z-score": 2.59, "total luciferase, % of control": 133}
{"target gene": "MFN1 (mitofusin 1)", "reagent": 3, "total luciferase, z-score": 0.499, "total luciferase, % of control": 91.8}

The list goes on (2 carried over from the part before).
{"target gene": "MFN1 (mitofusin 1)", "reagent": 2, "total luciferase, z-score": 2.59, "total luciferase, % of control": 133}
{"target gene": "MFN1 (mitofusin 1)", "reagent": 3, "total luciferase, z-score": 0.499, "total luciferase, % of control": 91.8}
{"target gene": "ZNF709 (zinc finger protein 709)", "reagent": 1, "total luciferase, z-score": 2.58, "total luciferase, % of control": 133}
{"target gene": "ZNF709 (zinc finger protein 709)", "reagent": 2, "total luciferase, z-score": "3.04 (active)", "total luciferase, % of control": 142}
{"target gene": "ZNF709 (zinc finger protein 709)", "reagent": 3, "total luciferase, z-score": 1.16, "total luciferase, % of control": 105}
{"target gene": "LOC727961 (retired record)", "reagent": 1, "total luciferase, z-score": 1.31, "total luciferase, % of control": 108}
{"target gene": "LOC727961 (retired record)", "reagent": 2, "total luciferase, z-score": 0.226, "total luciferase, % of control": 86.4}
{"target gene": "LOC727961 (retired record)", "reagent": 3, "total luciferase, z-score": -0.0357, "total luciferase, % of control": 81.2}
